In patent US20090131308A1, “Splice Variants of ErbB Ligands, Compositions and Uses Thereof” (AGOS BIOTECH LTD., priority 2003, published 2009):
Results are given in words; binding and its absence hold for the method and conditions named.

Sequences of proteins named here, by UniProt entry; tags and fusion partners are left off. A change or cut given only in a name is not applied to a line headed by its entry.
UniProt P35070: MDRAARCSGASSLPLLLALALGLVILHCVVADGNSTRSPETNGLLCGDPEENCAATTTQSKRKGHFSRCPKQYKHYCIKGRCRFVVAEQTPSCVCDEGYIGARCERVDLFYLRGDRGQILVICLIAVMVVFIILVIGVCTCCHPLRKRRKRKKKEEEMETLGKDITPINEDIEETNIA

Molecular target: Betacellulin (recombinant, immobilized) (human or bovine) (UniProt P35070)
Test: BIAcore 3000, Betacellulin amine-coupled to CM-5 chip, peptide injected

Question: How did the binding turn out when NSDSECPLSHDGYCLHDGVCMYIEALDKYACK [Human EGF (1-32)] was run?
Answer: no binding
